The text below walks through data of PMC2956695.

Amino acid sequences for entries named in this document (tags omitted).
UniProt P87315: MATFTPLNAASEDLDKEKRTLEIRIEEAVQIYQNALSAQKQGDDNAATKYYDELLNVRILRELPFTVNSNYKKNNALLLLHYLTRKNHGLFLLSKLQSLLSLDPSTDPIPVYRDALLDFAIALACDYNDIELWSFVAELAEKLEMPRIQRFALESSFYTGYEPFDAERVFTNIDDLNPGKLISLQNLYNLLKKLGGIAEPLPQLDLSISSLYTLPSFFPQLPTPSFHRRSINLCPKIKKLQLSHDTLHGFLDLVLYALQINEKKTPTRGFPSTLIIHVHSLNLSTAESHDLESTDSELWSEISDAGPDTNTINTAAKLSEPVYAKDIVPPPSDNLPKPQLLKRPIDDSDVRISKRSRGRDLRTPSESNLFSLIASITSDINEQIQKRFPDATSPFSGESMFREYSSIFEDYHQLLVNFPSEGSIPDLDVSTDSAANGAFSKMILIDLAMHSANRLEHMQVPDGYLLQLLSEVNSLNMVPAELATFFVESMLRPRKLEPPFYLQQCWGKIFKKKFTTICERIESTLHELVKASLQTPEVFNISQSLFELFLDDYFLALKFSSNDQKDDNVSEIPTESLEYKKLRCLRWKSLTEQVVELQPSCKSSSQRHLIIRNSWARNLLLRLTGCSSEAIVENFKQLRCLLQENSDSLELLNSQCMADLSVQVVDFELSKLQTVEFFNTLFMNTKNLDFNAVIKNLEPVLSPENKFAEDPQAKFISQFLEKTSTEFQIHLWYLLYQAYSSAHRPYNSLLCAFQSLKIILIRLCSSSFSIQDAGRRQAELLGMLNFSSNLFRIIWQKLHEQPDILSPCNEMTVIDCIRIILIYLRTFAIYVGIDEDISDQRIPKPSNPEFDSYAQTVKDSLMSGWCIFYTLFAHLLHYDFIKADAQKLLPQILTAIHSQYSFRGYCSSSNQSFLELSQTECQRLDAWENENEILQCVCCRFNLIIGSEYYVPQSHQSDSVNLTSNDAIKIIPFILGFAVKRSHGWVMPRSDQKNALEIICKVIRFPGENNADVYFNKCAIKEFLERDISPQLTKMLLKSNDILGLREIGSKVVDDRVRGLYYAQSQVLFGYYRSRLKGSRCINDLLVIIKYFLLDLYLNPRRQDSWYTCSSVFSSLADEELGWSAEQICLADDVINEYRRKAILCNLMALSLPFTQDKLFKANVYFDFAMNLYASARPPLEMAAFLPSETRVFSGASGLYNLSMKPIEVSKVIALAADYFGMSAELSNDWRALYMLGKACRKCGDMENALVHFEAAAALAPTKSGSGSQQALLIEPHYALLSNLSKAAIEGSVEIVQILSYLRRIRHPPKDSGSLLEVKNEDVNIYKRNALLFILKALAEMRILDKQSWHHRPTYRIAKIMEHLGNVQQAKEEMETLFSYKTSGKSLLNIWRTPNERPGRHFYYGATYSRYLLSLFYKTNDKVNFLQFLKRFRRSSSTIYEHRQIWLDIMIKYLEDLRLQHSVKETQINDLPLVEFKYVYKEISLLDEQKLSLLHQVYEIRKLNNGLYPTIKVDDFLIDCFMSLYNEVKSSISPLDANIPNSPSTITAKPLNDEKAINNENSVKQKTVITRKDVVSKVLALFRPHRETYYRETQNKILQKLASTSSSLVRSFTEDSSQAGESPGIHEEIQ

The test has as its target T1, Hip4-TAP (S. pombe) (UniProt O43083).
T1 sequence: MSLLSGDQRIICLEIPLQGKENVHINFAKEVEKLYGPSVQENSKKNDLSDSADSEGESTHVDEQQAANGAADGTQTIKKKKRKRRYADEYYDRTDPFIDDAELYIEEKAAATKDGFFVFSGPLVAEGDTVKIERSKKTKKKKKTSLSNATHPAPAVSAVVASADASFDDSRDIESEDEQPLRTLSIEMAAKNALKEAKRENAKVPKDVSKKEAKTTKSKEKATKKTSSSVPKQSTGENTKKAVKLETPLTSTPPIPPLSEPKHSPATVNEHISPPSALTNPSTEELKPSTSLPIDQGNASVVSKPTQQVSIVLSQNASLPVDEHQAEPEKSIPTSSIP
Nature of the test: co-IP; IgG-coupled Dynal beads added to 1 mg whole cell extract of hip4-TAP strains, 1 hour at 4°C, HB buffer (25mM Tris-HCl pH 7.5, 15 mM EGTA, 15 mM MgCl2, 0.1% NP40, 1 mM DTT, 0.1 mM NaF); western blotting with anti-Pk, anti-FLAG and PAP.

Results are given in words; binding and its absence hold for the method and conditions named. Binding seen in cells or lysates may run through a third protein. Some results given as binding are weak or reduced against the parent protein; the word gives no strength.

Regarding “Hip3-3XFLAG (from UniProt P87315 1-1630)”, the binding result was “binds”.

B1: Slm9-Pk (protein, UniProt O74309 1-807)
chain: MHIFVPKLLENHQFSSISSSKDFVAVSAETNVYILSKDFFYPKSSEKRIIQSLNGHKTTHLSFDSPISCIRFTYDGSCLAVATEAGTFLYHSEKWDKAFQVLSGPAYEVCWSQQGHILATSWKQISIYVKDEGLRTETIVKKTEHADSNHQPAVSIEESKEAVESTSQSSEISFKLIKVIEGHHTFVGGLAFDPMGQFLASQSFDHTLKVWKLSTFGVEKSIAKPFEQMPTGNRFLRLSWSPDGAHIASVNAVNEGAYVIAIVQRDTWTYDINLVGHQGPLECATFNPYLYEDPFQKSIIASAAHDGCVSIWNTACARPMAVIHELSCSSFVDLQWSTSGFELYGVSLDGNLMLLQFEESEFGEKMDTIHYPDDLSYFNSSRSKAHVNKNAAADRTTSPTQGQPESPSKSILLRPPPSIASSPESKRRKCPKKFVARPPVPHPTSLYSQIRIGCPYLKPKLVISKSFGTLIVKNHNQLSLLKCTFSNLDGNDCSWFSYLPNAIVLANGTSVFWAVATEDSSIYIYSPAGRLLLPPVVVAATPCFLECCGDFLCCIVSTGLLYIWNIKNFEAIHSPVSTLPLFHSNFSVSKIARGPSIEQFFVTKQGHPVAIMSDGNAFAFIRDSSSWLRVSEGWWMIGSQYWGPLASESNEESPLGFLERCTDEEIIKAGRGRFLQRLVKALMLRQGYDNYEMLVSIRHLENRLMSSAKLDLEYDFRENLILYAKKIAEEGMKDKMDELCKELLGPLRIPHNGIDTVKVGNRLWSPTIAGNNKRNLLKDIIIHTAKYRDMQRITSQYSDLLRRSALL
As to B1, the binding entry is on record as “binds”.

B2: Hip1-Pk (protein, UniProt P87314 1-932)
chain: MKIKKIPWLGHFDDRGHRLSIFSIHIHPDGSRIATGGLDGTIRIWSTEAINRENENENENEDLPKQLCCMSTHTGTVTSVRFSPNGQYLASGSDDRVVIIWHKEEAIPGLGSTFGSGEKHTENWRSYRRLLGHDNDIQDLCWSYDSQLVVSVGLDSSIIVWNGTTFERLKRIEAHQSHVKGITFDPAGKYFATESDDRTIKVWRVSDFSIEKTITGPFNNSPLSTYFRRPSWSPDGKHIAAPNAMNGPVSCVSIIERGTWTSEINLIGHEGPVEVTAFNPKLFRDKNDKLVCILACGGQDRSLSIWSSALPRPLLSCQNVFQKSIGDVCWSPDGLSLFLCSYDGNVLVCTFEKEEFGDMVSDEEISKALAKYGHGRHGIVLPESAKQLELEETAYAILKKPSSLSTTDPTLVPQSSSTPKSAQKTPQKLPAFLPNRLTAETVDTNKLTASKEQIASPKRPGPSDNGNEIPTKFVQKVTITKEGKKRVAPQLLTTLSATPSTSRLASTQLQHTGSSQLPPQQFSQPINSLPKGGVPILIVGNKTKVNHENDESDQALQEEKIEEGLLKNYYSSLIDSSTSISNINFEAPRYKTNIVHSLNNEQKYVLEVKNGTSEKNPTRIVALENGNTKWMDYLPRPVILVTGSIHFWSIACDDGSLHLYSLTGSRLLPPIMIESKASFLHCNNAYLLCISSSGMVYAWNVVNKTALFTANSLAPILSRVSNNVTIENNSTDIPHVVIASISKEGVPSVTLSTGETYVYSSTMLCWQRITEPWWAIGSREWDSSGLLQSNTQTESQPLKIYEHRTNNVLMDSGRGKLLQKMVADAITEEGYDDFETIVTINHLENKIASARLLKLDDEFLVTSEVYVRLLMHHGLWQKLEEFLGELRTQTKCSIKLSGREVVAKMLVVLRQAVQTDNEFDRANKLIEKYAST
Turning to B2, the binding entry is “binds”.
